Values quoted from earlier work as cited in patent publication US6288110A, “Pharmaceutical compositions comprising disulfiram” (Yeda Research and Development Co Ltd., priority 1998, dated 2001).
At least one compound was matched to its structure with a doubt left.

Conditions: cited from earlier work

SMILES: CCN(CC)C(=S)S [DDC, diethyldithiocarbamate]
- chelation of copper, iron and zinc: potent chelators
